Data as given in publication PMC4381075.
Construct, isoform or probe ends are uncertain for at least one entry. For part of these data: Whether high values mean tight binding is not given here for every scale.

Sequences of proteins named here, by UniProt entry; tags and fusion partners are left off. Residues count along the entry.
UniProt Q9UBB5, 150-260: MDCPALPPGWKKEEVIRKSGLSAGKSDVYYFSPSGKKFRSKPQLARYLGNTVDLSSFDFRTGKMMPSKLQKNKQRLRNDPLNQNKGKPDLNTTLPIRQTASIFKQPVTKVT
UniProt Q9UBB5, 150-214: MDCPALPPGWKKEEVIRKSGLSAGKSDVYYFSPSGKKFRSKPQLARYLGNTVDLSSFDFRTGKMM

Tests used:
MBD2(150-260) (human) = MBD2(150-260) (human) (UniProt Q9UBB5); assay: fluorescence polarization; details: 150 mM NaCl; 5-methyl-C at position 9 of strand 1 (central CpG); complement mC at position 8 implied, not given; FP: 10 mM HEPES pH 7.5, 50 or 150 mM NaCl, 3 mM MgCl2, 0.1 mM EDTA, 1 mM DTT, 0.02% azide; temperature not stated; recombinant protein; residues 150-260; label: 3' FAM on reverse strand
MBD2MBD (human) = MBD2MBD (human) (UniProt Q9UBB5); assay: fluorescence polarization; details: 150 mM NaCl; 5-methyl-C at position 9 of strand 1 (central CpG); complement mC at position 8 implied, not given; FP: 10 mM HEPES pH 7.5, 50 or 150 mM NaCl, 3 mM MgCl2, 0.1 mM EDTA, 1 mM DTT, 0.02% azide; temperature not stated; recombinant protein; residues 150-214; label: 3' FAM on reverse strand
MBD2FLsc (human) = MBD2FLsc (human) (UniProt Q9UBB5); assay: NMR 15N-HSQC; details: 2H,13C,15N protein, thioredoxin removal not stated for this construct, 10% molar excess DNA; 5-methyl-C at position 9 of strand 1 (central CpG); complement mC at position 8 implied, not given; recombinant protein

Sequence | binding signal (fold affinity vs 50 mM NaCl) (MBD2(150-260) (human)) | binding signal (fold affinity vs 50 mM NaCl) (MBD2MBD (human)) | binding result (MBD2FLsc (human))
GAGGCGCTCGGCGGCAG (double strand) [17 bp central mCpG, FP] | 0.1 | 0.1 | 
GAGGCGCTCGGCGGCAG (double strand) [17 bp central mCpG, NMR] |  |  | binds
